According to publication PMC6488667:
These are yes or no findings as the source states them, for the method shown. Binding seen in cells or lysates may run through a third protein. Some entries that bind do so weakly or less than the wild type.

By UniProt entry, the sequences of proteins in these tests, tags left out.
UniProt O00629: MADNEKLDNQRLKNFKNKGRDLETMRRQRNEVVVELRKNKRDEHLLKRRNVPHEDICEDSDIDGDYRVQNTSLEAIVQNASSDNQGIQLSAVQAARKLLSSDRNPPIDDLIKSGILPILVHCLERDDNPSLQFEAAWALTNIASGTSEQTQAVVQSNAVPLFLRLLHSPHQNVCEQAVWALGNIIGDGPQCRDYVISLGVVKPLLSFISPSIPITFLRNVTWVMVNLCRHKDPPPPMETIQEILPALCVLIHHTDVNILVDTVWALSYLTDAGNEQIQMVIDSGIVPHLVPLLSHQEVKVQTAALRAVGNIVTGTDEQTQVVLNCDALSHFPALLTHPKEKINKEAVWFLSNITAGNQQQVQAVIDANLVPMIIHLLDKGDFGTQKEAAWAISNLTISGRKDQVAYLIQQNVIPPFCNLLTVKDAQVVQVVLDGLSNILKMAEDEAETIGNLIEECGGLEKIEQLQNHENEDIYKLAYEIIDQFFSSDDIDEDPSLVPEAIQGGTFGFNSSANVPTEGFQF
UniProt P52294: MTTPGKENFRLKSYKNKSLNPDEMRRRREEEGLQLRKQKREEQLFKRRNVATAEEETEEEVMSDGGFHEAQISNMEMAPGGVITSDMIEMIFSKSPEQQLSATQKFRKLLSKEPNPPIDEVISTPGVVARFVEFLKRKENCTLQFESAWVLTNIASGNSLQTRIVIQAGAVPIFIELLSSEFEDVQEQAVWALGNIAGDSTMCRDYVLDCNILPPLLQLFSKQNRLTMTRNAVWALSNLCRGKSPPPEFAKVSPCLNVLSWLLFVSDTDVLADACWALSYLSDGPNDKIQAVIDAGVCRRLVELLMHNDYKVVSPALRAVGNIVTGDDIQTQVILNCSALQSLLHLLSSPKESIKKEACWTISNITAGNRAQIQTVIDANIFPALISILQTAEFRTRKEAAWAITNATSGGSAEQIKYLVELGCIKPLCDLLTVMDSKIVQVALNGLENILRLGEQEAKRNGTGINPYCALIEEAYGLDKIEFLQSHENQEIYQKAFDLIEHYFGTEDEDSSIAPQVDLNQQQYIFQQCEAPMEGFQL
UniProt Q04206: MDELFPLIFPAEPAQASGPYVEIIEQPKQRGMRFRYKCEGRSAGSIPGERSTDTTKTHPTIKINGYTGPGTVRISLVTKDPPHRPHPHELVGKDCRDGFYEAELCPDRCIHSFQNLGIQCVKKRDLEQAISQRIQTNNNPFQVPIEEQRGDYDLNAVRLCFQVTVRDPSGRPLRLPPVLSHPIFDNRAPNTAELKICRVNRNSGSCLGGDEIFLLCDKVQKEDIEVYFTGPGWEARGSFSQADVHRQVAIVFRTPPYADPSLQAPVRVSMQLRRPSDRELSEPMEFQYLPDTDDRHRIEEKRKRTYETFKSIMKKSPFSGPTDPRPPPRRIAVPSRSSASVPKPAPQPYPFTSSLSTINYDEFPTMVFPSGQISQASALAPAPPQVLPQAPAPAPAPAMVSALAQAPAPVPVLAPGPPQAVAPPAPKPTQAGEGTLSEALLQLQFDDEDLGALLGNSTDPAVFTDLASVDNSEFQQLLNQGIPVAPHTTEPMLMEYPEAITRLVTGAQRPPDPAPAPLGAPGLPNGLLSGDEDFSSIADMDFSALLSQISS

Columns and labels:
HA-importin α3 = HA-importin α3 (UniProt O00629); assay: co-IP; MDA-MB231 cells expressing HA-importin α3 or α5, treated with SP-8356 and TNF-α; lysis in 50 mM Tris-HCl pH 7.5, 150 mM NaCl, 1% Triton X-100; anti-HA agarose 2 h at 4 °C; Western blot for p65 and HA
HA-importin α5 = HA-importin α5 (UniProt P52294); assay: as above

Substance: NF-κB RelA/p65 subunit (from UniProt Q04206 1-551)
- binding (HA-importin α3): binds
- binding (HA-importin α5): binds
